According to paper PMC7819943, “Rice protein-binding microarrays: a tool to detect cis-acting elements near promoter regions in rice”:
Some of the results follow.

Protein sequences, listed by entry. Tags and fused reporters are not part of them.
UniProt Q0JBA9, entry or part of it: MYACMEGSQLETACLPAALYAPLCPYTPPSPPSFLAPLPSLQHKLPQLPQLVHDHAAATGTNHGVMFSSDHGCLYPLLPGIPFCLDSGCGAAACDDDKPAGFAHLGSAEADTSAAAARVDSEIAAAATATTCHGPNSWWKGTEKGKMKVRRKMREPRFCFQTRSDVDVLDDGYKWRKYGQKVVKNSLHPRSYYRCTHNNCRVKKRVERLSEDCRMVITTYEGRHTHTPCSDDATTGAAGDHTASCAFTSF

Biological target: OsWRKY34 (Oryza sativa, UniProt Q0JBA9 1-250)
Assay: protein-binding microarray (RPBM); PBS, 2% BSA, 51.3 ng/ul salmon testes DNA, 50 uM zinc acetate, 200 nM TF, 25 C, 1 h; high values mean tight binding
Conditions: protein: recombinant; tags: N-terminal polyhistidine and DsRed monomer fusion (pET32a); label: CyDye5-dUTP incorporated in the synthesized complementary strand; 3' TTTTT single-stranded linker to array surface; dsDNA, one strand shown
How it was run: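 Per-feature fluorescence intensity (arbitrary units), read on an Axon 4000B scanner, is the binding signal. Transcription factors carrying an N-terminal polyhistidine tag and DsRed fusion were expressed in E. coli BL21-CodonPlus and purified on Ni–NTA. A custom Agilent array, made double-stranded by primer extension with Cy5-dUTP and blocked with 2% BSA, was incubated with 200 nM protein in PBS, 2% BSA, salmon testes DNA and 50 µM zinc acetate at 25 °C for 1 h and then washed.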

Sequence	binding signal
TATATACTCCTACTCTTGCGCCTTTTCTCCTTCGAAATAGCGGAGTCACCTAGTGCAG	8260 fluorescence intensity (a.u.)
ACAACACACAAAGGGACAAACACAGATCAGCCGTTCATCTCGGAGTCACCTAGTGCAG	10600 fluorescence intensity (a.u.)
CCAACCGATCATAATCCTCCACCATTCACTTTTCCCATATCGGAGTCACCTAGTGCAG	8730 fluorescence intensity (a.u.)
ACTTGGGTATGTTTCCACTGAATATATTCTGTTGGAGATCCGGAGTCACCTAGTGCAG	8020 fluorescence intensity (a.u.)
CCTTTTTTCCCGATGGCACTAACGCACGTATACATGTTTTCGGAGTCACCTAGTGCAG	9890 fluorescence intensity (a.u.)
TCCATGCATGAGCTCTCGTTGTTGCAGCGGTACTGTGTCTCGGAGTCACCTAGTGCAG	9540 fluorescence intensity (a.u.)
CAGGACTACCCCTGGCTACGCCCTGTCTTTAACAATATTCCGGAGTCACCTAGTGCAG	8920 fluorescence intensity (a.u.)
AGGTGGACTGTTGGTCTATACATACACGTACTTATTCAATCGGAGTCACCTAGTGCAG	8660 fluorescence intensity (a.u.)
CAATCTTCCCGACCCAGCAAGCTTCTTCTTCCCTTGGGTCCGGAGTCACCTAGTGCAG	8610 fluorescence intensity (a.u.)
CTTACCATCTCCCCAAGCGGGAGAGTGGACGTCATAATTTCGGAGTCACCTAGTGCAG	8220 fluorescence intensity (a.u.)
TACATGATCATCTGTTGCAACACACATATACTTGCTTGTACGGAGTCACCTAGTGCAG	8140 fluorescence intensity (a.u.)
GACAAATTTAGTATTCTCTGAAATTTCACCACACTTTCCACGGAGTCACCTAGTGCAG	8460 fluorescence intensity (a.u.)
GCCGATTCGTTTCATTCACCGGATCTCTTGCGTCCGCCTCCGGAGTCACCTAGTGCAG	9510 fluorescence intensity (a.u.)
GCCTTTGTGTCACCCAGCTAGCTAGCCATCGCGCGCGATGCGGAGTCACCTAGTGCAG	8700 fluorescence intensity (a.u.)
GGAGGGAGGGTGGGGCGCGCACCTGGCCAACCACTACTCGCGGAGTCACCTAGTGCAG	9900 fluorescence intensity (a.u.)
CGCCGACCCGCCGTACATGCTGCCCTCAAACAGCACCTGCCGGAGTCACCTAGTGCAG	8310 fluorescence intensity (a.u.)
CATGTCTTGTGTGTGTTTCTATAAGCCTCTATTCCACCAACGGAGTCACCTAGTGCAG	9380 fluorescence intensity (a.u.)
TCCATGAGCCACGTGATATACTCTCTGTGTGTGTGTTTGCCGGAGTCACCTAGTGCAG	8590 fluorescence intensity (a.u.)
TTTGCAATTTTTTTCCATGGCTATTGCTAACCGAATCGGACGGAGTCACCTAGTGCAG	8320 fluorescence intensity (a.u.)
TTGTGATTCTTTTTTTTATGTTTCAACCAATGTATTTTGACGGAGTCACCTAGTGCAG	8160 fluorescence intensity (a.u.)
GAATCATATCAATTCTTTTCTTCTTTCTTTTTTTGCGGGGCGGAGTCACCTAGTGCAG	12100 fluorescence intensity (a.u.)

Sequence	binding signal
AAGAGCACCGCATTTTCTACGCTTTTTCTTTGTTTTTTTTCGGAGTCACCTAGTGCAG	11700 fluorescence intensity (a.u.)
GCCGCCGGGCGCGTTCCTCTCACCGTGCGCGCGACTCCTCCGGAGTCACCTAGTGCAG	11100 fluorescence intensity (a.u.)
TGGCATTTTTGGCTTTGCTTCTCTTCTCTTCCTTTGCTTTCGGAGTCACCTAGTGCAG	8580 fluorescence intensity (a.u.)
CATACGCACACACCTCTACGCATGCAACACCACTCTCACTCGGAGTCACCTAGTGCAG	8800 fluorescence intensity (a.u.)
GCTTAATTTATTTGTTTCCATTTTTATTTTTAATTTTTTTCGGAGTCACCTAGTGCAG	11300 fluorescence intensity (a.u.)
GGGTATTGTAGTAACTTCCTGTGCACCATCGGGGTTAAGACGGAGTCACCTAGTGCAG	10500 fluorescence intensity (a.u.)
TGCTTGATATCAATCAACCCAGTTCAACTGTTTTTAATGTCGGAGTCACCTAGTGCAG	8390 fluorescence intensity (a.u.)
CTAGTTCAGATGCTCGCCACTTTGCCATTTGAGCATTTTTCGGAGTCACCTAGTGCAG	10200 fluorescence intensity (a.u.)
TATTTGGTTTTGTAGGGGTTGGTTTGGGAAAATTGGAAAGCGGAGTCACCTAGTGCAG	16400 fluorescence intensity (a.u.)
ACATCATGTCTGTGTCACATCCACTTAAAATATCTTATATCGGAGTCACCTAGTGCAG	9450 fluorescence intensity (a.u.)
CCGTGTCTTCATCCTTGATCCTCCACACTCTCTTTCCCTTCGGAGTCACCTAGTGCAG	10300 fluorescence intensity (a.u.)
TTACCATGCCATATTTGACATTCCAAGCCATTAGCTTCCGCGGAGTCACCTAGTGCAG	9330 fluorescence intensity (a.u.)
TCCCTTCCTCGCTTCCACCCAATCTTTCGCTAATTCGTTTCGGAGTCACCTAGTGCAG	9350 fluorescence intensity (a.u.)
TTTTGGGGTTGGTCTTGCCTTCCATAGGTATCTCTCCACGCGGAGTCACCTAGTGCAG	8950 fluorescence intensity (a.u.)
TTTCCGATTATCCTTCATCGCTAAACTCGACTTGCTTTGACGGAGTCACCTAGTGCAG	10200 fluorescence intensity (a.u.)
TGGTTTTGTTGTTTCAGGTTTAGGAATTCAGGTTGATGAACGGAGTCACCTAGTGCAG	10700 fluorescence intensity (a.u.)
GCACCGCACATCCATGCTAGGTTTTCATACCGGTCCATAACGGAGTCACCTAGTGCAG	8360 fluorescence intensity (a.u.)
TGTTTTTTTACCCGTTTTATTTGCTTTACTCGTGCAAATCCGGAGTCACCTAGTGCAG	12700 fluorescence intensity (a.u.)
AAAGAGGAGGGTGTAATTTTTTCTTCTATTTATAATTTCCCGGAGTCACCTAGTGCAG	9930 fluorescence intensity (a.u.)
CCCACCGCTCCTCCGCGCCACGCTTCCTCGCCGCGCGCGCCGGAGTCACCTAGTGCAG	8390 fluorescence intensity (a.u.)
ACGAATCAGCATATATAGTGGACCATTTCTCAGTTAGCTCCGGAGTCACCTAGTGCAG	8130 fluorescence intensity (a.u.)
